Laboratory results taken from the supplement of paper PMC8728848.
The list shows a part of the results.

How the values were obtained:
Assay in all cases: glycan array binding signal (z-score within array); higher = stronger binding
Conditions in all cases: glycan notation: IUPAC condensed, linker removed
[1] = molecular target: Fuc(a1-2)Gal(b1-4)GlcNAc(b1-3)Gal(b1-4)GlcNAc(b1-3)Gal(b1-4)GlcNAc
Procedure, shortened: (§1)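 Arrays were curated from the Consortium for Functional Glycomics database, 3228 in total, and kept only where the protein sequence was available. Binding is expressed as a within-array Z-score. This score was averaged across arrays of the same protein sequence at different concentrations or buffers and across linkers, and negative values can be read as non-binding.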

[2] = molecular target: Fuc(a1-2)Gal(b1-4)GlcNAc(b1-3)GalNAc
Procedure, shortened: as §1

[3] = molecular target: Fuc(a1-2)Gal(b1-4)GlcNAc(b1-3)[Fuc(a1-2)Gal(b1-4)GlcNAc(b1-6)]GalNAc
Procedure, shortened: as §1

[4] = molecular target: Fuc(a1-2)Gal(b1-4)GlcNAc(b1-3)[Fuc(a1-3)[Gal(b1-4)]GlcNAc(b1-6)]Gal(b1-4)Glc
Procedure, shortened: as §1

[5] = molecular target: Fuc(a1-2)Gal(b1-4)GlcNAc(b1-6)GalNAc
Procedure, shortened: as §1

[6] = molecular target: Fuc(a1-2)Gal(b1-4)GlcNAc6S
Procedure, shortened: as §1

[7] = molecular target: Fuc(a1-2)Gal(b1-4)[Fuc(a1-3)]GlcNAc
Procedure, shortened: as §1

[8] = molecular target: Fuc(a1-2)Gal(b1-4)[Fuc(a1-3)]GlcNAc(b1-2)Man(a1-3)[Fuc(a1-2)Gal(b1-4)[Fuc(a1-3)]GlcNAc(b1-2)Man(a1-6)]Man(b1-4)GlcNAc(b1-4)[Fuc(a1-6)]GlcNAc
Procedure, shortened: as §1

[9] = molecular target: Fuc(a1-2)Gal(b1-4)[Fuc(a1-3)]GlcNAc(b1-2)[Fuc(a1-2)Gal(b1-4)[Fuc(a1-3)]GlcNAc(b1-4)]Man(a1-3)[Fuc(a1-2)Gal(b1-4)[Fuc(a1-3)]GlcNAc(b1-2)Man(a1-6)]Man(b1-4)GlcNAc(b1-4)GlcNAc
Procedure, shortened: as §1

[10] = molecular target: Fuc(a1-2)Gal(b1-4)[Fuc(a1-3)]GlcNAc(b1-3)Gal(b1-4)[Fuc(a1-3)]GlcNAc
Procedure, shortened: as §1

[11] = molecular target: Fuc(a1-2)Gal(b1-4)[Fuc(a1-3)]GlcNAc(b1-3)Gal(b1-4)[Fuc(a1-3)]GlcNAc(b1-3)Gal(b1-4)[Fuc(a1-3)]GlcNAc
Procedure, shortened: as §1

[12] = molecular target: Fuc(a1-2)Gal(b1-4)[Fuc(a1-3)]GlcNAc(b1-3)GalNAc
Procedure, shortened: as §1

[13] = molecular target: Fuc(a1-2)Gal(b1-4)[Fuc(a1-3)]GlcNAc(b1-3)[Neu5Ac(a2-6)Gal(b1-4)GlcNAc(b1-6)]Gal(b1-4)Glc
Procedure, shortened: as §1

[14] = molecular target: Fuc(a1-2)Gal3S(b1-4)GlcNAc
Procedure, shortened: as §1

[15] = molecular target: Fuc(a1-2)Gal6S(b1-3)GlcNAc
Procedure, shortened: as §1

[16] = molecular target: Fuc(a1-2)Gal6S(b1-3)GlcNAc6S
Procedure, shortened: as §1

Fuc(a1-2)Gal6S(b1-4)Glc = molecular target: Fuc(a1-2)Gal6S(b1-4)Glc
Procedure, shortened: as §1

[17] = molecular target: Fuc(a1-2)Gal6S(b1-4)Glc6S
Procedure, shortened: as §1

Fuc(a1-2)[Gal(a1-3)]Gal = molecular target: Fuc(a1-2)[Gal(a1-3)]Gal
Procedure, shortened: as §1

[18] = molecular target: Fuc(a1-2)[Gal(a1-3)]Gal(b1-3)GalNAc
Procedure, shortened: as §1

[19] = molecular target: Fuc(a1-2)[Gal(a1-3)]Gal(b1-3)GalNAc(b1-3)Gal(a1-4)Gal(b1-4)Glc
Procedure, shortened: as §1

[20] = molecular target: Fuc(a1-2)[Gal(a1-3)]Gal(b1-3)GlcNAc
Procedure, shortened: as §1

[21] = molecular target: Fuc(a1-2)[Gal(a1-3)]Gal(b1-3)GlcNAc(b1-2)Man(a1-3)[Fuc(a1-2)[Gal(a1-3)]Gal(b1-3)GlcNAc(b1-2)Man(a1-6)]Man(b1-4)GlcNAc(b1-4)GlcNAc
Procedure, shortened: as §1

[22] = molecular target: Fuc(a1-2)[Gal(a1-3)]Gal(b1-3)GlcNAc(b1-2)Man(a1-3)[Fuc(a1-2)[Gal(a1-3)]Gal(b1-3)GlcNAc(b1-2)Man(a1-6)]Man(b1-4)GlcNAc(b1-4)[Fuc(a1-6)]GlcNAc
Procedure, shortened: as §1

[23] = molecular target: Fuc(a1-2)[Gal(a1-3)]Gal(b1-3)GlcNAc(b1-3)GalNAc
Procedure, shortened: as §1

[24] = molecular target: Fuc(a1-2)[Gal(a1-3)]Gal(b1-3)GlcNAc(b1-6)GalNAc
Procedure, shortened: as §1

[25] = molecular target: Fuc(a1-2)[Gal(a1-3)]Gal(b1-4)Glc
Procedure, shortened: as §1

[26] = molecular target: Fuc(a1-2)[Gal(a1-3)]Gal(b1-4)GlcNAc
Procedure, shortened: as §1

[27] = molecular target: Fuc(a1-2)[Gal(a1-3)]Gal(b1-4)GlcNAc(b1-2)Man
Procedure, shortened: as §1

[28] = molecular target: Fuc(a1-2)[Gal(a1-3)]Gal(b1-4)GlcNAc(b1-2)Man(a1-3)[Fuc(a1-2)[Gal(a1-3)]Gal(b1-4)GlcNAc(b1-2)Man(a1-6)]Man(b1-4)GlcNAc(b1-4)GlcNAc
Procedure, shortened: as §1

[29] = molecular target: Fuc(a1-2)[Gal(a1-3)]Gal(b1-4)GlcNAc(b1-2)Man(a1-3)[Fuc(a1-2)[Gal(a1-3)]Gal(b1-4)GlcNAc(b1-2)Man(a1-6)]Man(b1-4)GlcNAc(b1-4)[Fuc(a1-6)]GlcNAc
Procedure, shortened: as §1

[30] = molecular target: Fuc(a1-2)[Gal(a1-3)]Gal(b1-4)GlcNAc(b1-3)GalNAc
Procedure, shortened: as §1

[31] = molecular target: Fuc(a1-2)[Gal(a1-3)]Gal(b1-4)GlcNAc(b1-3)[Fuc(a1-2)[Gal(a1-3)]Gal(b1-4)GlcNAc(b1-6)]GalNAc
Procedure, shortened: as §1

[32] = molecular target: Fuc(a1-2)[Gal(a1-3)]Gal(b1-4)GlcNAc(b1-6)GalNAc
Procedure, shortened: as §1

[33] = molecular target: Fuc(a1-2)[Gal(a1-3)]Gal(b1-4)[Fuc(a1-3)]Glc
Procedure, shortened: as §1

[34] = molecular target: Fuc(a1-2)[Gal(a1-3)]Gal(b1-4)[Fuc(a1-3)]GlcNAc
Procedure, shortened: as §1

[35] = molecular target: Fuc(a1-2)[Gal(a1-3)]Gal(b1-4)[Fuc(a1-3)]GlcNAc(b1-3)GalNAc
Procedure, shortened: as §1

B1: OS9 (Arabidopsis thaliana) (protein)
chain: MRGSHHHHHHGMASMTGGQQMGRDLYDDDDKSRLQIFPAHLVGTFSRNNREPKYKIEFLPEDSPFHPGDNLESMVMLDKHGNRFLCYLPKEEKATSGWTSSQQNISTVMMETQQLVKLKTPDELLQPLSEKCLFRQEGWWSYEFCHQKYVRQLHVEDENKIVQEFFLGTFDPEATAAFNQTVSDASTDASQRYHSHVYTNGTTCDLTGSPREVEVRFVCAETRAMVTSITELSTCKYALTVQCPTLCKHPLFQLEKPVSHTIHCNAIPVEEDATRNKEEQAVDESPKMIADS
- glycan array binding signal (z-score) [1]: -0.074
- glycan array binding signal (z-score) [2]: -0.698
- glycan array binding signal (z-score) [3]: -1.29
- glycan array binding signal (z-score) [4]: -1
- glycan array binding signal (z-score) [5]: 0.96
- glycan array binding signal (z-score) [6]: -0.119
- glycan array binding signal (z-score) [7]: 0.076
- glycan array binding signal (z-score) [8]: -0.608
- glycan array binding signal (z-score) [9]: -0.906
- glycan array binding signal (z-score) [10]: -0.655
- glycan array binding signal (z-score) [11]: 4.22
- glycan array binding signal (z-score) [12]: -1.21
- glycan array binding signal (z-score) [13]: -0.385
- glycan array binding signal (z-score) [14]: -1.08
- glycan array binding signal (z-score) [15]: -0.883
- glycan array binding signal (z-score) [16]: -0.434
- glycan array binding signal (z-score) (Fuc(a1-2)Gal6S(b1-4)Glc): 0.274
- glycan array binding signal (z-score) [17]: -0.372
- glycan array binding signal (z-score) (Fuc(a1-2)[Gal(a1-3)]Gal): 0.588
- glycan array binding signal (z-score) [18]: -0.006
- glycan array binding signal (z-score) [19]: -0.745
- glycan array binding signal (z-score) [20]: -0.352
- glycan array binding signal (z-score) [21]: -0.11
- glycan array binding signal (z-score) [22]: -0.556
- glycan array binding signal (z-score) [23]: 0.58
- glycan array binding signal (z-score) [24]: -1.16
- glycan array binding signal (z-score) [25]: -1.36
- glycan array binding signal (z-score) [26]: 0.803
- glycan array binding signal (z-score) [27]: -1.04
- glycan array binding signal (z-score) [28]: 3.36
- glycan array binding signal (z-score) [29]: 1.75
- glycan array binding signal (z-score) [30]: -0.639
- glycan array binding signal (z-score) [31]: 0.078
- glycan array binding signal (z-score) [32]: 0.051
- glycan array binding signal (z-score) [33]: -0.052
- glycan array binding signal (z-score) [34]: 0.266
- glycan array binding signal (z-score) [35]: -0.96
